Assay results: article PMC8926402
Results are given in words; binding and its absence hold for the method and conditions named. In cells and extracts the contact can be indirect. Some results given as binding are weak or reduced against the parent protein; the word gives no strength.

The chains behind the UniProt entries cited, without tags or fusion partners.
UniProt O75486: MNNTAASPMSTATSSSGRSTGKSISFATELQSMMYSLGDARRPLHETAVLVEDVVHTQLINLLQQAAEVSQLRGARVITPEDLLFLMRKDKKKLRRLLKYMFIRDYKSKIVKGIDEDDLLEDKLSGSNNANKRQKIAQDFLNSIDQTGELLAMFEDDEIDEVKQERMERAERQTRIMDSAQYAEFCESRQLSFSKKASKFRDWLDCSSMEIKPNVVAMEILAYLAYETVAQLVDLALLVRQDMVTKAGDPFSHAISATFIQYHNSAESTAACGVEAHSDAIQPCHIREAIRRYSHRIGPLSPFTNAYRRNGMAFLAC
UniProt Q96L91: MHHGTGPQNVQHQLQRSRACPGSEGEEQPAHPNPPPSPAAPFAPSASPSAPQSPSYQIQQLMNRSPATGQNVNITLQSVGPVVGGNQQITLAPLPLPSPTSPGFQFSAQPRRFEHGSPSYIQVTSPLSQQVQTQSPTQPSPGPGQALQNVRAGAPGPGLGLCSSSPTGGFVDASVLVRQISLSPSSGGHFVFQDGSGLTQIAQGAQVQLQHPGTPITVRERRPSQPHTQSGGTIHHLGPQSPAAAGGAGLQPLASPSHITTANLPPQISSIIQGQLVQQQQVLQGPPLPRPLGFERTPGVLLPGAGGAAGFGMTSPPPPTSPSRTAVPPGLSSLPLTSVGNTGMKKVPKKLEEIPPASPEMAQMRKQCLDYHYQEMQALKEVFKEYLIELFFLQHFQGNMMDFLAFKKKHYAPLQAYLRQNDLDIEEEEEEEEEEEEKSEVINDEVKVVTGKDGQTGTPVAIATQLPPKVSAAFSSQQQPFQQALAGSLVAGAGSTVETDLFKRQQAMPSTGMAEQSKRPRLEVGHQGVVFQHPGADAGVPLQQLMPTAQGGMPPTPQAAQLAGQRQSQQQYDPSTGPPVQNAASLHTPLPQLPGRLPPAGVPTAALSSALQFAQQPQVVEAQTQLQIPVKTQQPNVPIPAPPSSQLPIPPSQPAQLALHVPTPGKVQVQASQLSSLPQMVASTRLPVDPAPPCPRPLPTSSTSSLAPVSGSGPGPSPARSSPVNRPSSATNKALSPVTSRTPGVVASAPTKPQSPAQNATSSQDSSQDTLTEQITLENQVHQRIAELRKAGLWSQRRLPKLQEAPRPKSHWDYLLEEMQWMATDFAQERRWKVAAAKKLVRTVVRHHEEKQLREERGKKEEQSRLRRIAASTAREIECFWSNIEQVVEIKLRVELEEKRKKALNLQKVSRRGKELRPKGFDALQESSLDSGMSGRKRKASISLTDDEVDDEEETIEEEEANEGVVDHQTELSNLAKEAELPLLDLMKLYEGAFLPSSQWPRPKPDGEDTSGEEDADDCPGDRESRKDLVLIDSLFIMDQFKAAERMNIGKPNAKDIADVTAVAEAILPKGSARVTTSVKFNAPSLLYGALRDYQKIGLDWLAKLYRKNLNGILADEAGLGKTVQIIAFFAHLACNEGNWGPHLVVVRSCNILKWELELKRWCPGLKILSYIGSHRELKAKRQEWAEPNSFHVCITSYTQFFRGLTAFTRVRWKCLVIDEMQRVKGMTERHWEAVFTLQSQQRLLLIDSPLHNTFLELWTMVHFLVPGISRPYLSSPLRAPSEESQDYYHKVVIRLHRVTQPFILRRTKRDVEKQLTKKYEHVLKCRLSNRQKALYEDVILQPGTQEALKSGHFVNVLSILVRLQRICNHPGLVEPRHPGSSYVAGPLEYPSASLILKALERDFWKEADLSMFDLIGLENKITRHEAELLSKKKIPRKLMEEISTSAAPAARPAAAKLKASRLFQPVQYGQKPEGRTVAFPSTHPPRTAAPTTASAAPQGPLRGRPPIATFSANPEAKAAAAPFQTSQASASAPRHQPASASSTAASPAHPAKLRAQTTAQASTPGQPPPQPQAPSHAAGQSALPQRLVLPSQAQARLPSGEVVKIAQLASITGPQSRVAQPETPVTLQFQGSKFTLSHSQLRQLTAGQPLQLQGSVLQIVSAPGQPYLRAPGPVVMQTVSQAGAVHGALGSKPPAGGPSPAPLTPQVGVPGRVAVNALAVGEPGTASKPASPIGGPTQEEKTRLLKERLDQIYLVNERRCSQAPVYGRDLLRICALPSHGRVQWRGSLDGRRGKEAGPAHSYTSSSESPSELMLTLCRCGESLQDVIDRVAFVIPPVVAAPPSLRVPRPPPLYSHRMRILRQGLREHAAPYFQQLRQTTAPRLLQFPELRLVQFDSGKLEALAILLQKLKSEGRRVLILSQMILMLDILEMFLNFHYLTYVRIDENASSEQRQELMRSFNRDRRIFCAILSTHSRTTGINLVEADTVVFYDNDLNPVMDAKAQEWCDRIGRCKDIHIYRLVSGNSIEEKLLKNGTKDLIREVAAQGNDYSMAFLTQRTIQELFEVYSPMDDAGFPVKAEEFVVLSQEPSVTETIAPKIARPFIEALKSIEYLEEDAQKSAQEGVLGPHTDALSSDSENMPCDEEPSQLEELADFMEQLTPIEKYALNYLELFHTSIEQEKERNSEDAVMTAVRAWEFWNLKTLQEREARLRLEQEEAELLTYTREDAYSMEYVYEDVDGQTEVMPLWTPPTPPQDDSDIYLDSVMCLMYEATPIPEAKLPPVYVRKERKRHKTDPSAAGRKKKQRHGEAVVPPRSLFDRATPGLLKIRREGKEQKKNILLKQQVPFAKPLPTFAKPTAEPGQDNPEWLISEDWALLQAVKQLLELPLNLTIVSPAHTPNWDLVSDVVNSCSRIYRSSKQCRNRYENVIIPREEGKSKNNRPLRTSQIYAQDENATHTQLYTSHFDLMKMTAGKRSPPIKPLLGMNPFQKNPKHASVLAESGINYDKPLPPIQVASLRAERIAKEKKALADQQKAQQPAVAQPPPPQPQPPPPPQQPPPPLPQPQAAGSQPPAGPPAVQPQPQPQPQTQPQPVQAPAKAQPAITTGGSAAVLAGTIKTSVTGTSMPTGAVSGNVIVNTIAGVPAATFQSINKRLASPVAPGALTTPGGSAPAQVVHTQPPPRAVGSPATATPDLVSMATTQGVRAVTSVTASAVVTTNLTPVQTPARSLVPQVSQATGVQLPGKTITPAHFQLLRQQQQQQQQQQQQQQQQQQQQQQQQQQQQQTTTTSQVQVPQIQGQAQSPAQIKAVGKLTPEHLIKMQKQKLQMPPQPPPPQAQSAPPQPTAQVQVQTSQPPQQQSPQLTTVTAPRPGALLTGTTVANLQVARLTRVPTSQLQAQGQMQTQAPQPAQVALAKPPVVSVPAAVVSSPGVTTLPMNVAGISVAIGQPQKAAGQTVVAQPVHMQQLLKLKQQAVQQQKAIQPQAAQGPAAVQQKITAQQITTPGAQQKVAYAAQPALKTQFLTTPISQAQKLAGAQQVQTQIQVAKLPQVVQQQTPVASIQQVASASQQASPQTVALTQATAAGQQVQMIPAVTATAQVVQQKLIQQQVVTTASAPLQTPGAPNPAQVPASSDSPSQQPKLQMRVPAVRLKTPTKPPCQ
UniProt Q96ES7: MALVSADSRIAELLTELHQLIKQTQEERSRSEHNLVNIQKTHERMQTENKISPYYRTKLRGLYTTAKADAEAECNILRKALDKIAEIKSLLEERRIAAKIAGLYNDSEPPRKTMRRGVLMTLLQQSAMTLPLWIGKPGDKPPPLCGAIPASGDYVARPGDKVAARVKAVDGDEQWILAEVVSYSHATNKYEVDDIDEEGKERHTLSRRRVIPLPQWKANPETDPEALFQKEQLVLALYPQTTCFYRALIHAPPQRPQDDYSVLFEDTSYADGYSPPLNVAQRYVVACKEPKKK
UniProt Q12962: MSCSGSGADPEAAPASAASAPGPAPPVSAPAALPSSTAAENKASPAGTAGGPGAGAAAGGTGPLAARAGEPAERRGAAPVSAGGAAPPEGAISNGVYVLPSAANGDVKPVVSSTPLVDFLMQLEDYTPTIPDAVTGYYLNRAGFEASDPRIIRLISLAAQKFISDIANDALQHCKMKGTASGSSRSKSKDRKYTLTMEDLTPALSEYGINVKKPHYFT
UniProt Q96BN2: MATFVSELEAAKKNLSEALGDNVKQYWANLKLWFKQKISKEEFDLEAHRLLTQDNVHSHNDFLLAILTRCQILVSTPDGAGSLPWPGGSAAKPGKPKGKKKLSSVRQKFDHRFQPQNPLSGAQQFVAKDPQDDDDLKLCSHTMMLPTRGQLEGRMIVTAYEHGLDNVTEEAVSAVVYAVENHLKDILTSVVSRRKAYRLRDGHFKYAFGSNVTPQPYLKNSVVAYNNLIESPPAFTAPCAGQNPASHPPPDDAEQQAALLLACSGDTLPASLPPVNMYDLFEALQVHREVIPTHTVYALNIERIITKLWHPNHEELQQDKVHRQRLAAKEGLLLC
UniProt O94864: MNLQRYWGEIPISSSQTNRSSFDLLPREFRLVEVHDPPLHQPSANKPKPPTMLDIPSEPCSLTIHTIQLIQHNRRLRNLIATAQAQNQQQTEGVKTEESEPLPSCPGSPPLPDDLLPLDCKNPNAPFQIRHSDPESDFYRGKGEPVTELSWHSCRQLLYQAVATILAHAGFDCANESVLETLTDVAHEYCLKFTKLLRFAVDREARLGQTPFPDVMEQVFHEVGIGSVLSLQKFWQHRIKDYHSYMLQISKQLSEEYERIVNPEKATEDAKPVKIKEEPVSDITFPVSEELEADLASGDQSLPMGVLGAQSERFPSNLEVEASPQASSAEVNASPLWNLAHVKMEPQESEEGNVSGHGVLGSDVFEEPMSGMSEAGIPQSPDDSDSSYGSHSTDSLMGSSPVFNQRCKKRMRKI
UniProt O75528: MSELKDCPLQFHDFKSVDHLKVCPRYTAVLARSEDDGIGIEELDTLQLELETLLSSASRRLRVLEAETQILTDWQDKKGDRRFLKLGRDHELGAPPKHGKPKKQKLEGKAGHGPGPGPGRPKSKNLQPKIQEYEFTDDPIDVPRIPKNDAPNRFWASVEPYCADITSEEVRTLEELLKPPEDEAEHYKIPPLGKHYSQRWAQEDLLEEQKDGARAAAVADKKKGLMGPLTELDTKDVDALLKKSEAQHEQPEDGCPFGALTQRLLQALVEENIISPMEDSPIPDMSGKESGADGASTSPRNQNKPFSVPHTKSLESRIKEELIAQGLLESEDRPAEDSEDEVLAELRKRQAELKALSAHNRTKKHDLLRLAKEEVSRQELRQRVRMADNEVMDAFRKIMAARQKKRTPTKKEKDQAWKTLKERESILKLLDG
UniProt Q9Y4R8: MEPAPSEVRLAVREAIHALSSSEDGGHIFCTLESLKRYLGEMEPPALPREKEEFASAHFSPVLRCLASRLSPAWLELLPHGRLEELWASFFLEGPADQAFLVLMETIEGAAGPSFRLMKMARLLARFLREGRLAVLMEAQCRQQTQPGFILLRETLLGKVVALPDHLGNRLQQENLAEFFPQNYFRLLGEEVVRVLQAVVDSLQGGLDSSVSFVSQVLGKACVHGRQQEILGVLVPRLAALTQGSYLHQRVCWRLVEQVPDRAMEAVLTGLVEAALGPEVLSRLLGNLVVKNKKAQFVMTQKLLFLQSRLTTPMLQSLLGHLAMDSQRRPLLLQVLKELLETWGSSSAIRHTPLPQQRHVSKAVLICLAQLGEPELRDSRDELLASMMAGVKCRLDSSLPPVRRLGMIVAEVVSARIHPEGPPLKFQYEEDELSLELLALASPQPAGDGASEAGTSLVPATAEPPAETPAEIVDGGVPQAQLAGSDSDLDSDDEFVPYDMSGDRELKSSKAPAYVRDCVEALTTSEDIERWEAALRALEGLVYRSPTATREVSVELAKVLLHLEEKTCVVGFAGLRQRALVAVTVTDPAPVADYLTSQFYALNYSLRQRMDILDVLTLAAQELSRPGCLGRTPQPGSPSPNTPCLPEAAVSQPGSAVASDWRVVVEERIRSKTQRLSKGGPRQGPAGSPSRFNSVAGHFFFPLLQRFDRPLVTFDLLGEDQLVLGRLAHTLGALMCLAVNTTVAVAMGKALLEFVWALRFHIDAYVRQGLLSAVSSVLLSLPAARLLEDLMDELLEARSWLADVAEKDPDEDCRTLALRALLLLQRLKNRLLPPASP

Tests used:
[1] = target: SUPT3H (human (endogenous in HCT116)) (UniProt O75486); assay: co-IP; SUPT3H or EP400 immunoprecipitated from nuclear extracts of TELO2^AID HCT116 cells treated with auxin (TELO2 depletion) or NaOH for 24 hr; antibody-bound protein G-Sepharose beads overnight at 4°C; washes in 20 mM Tris-HCl pH 7.5, 150 mM NaCl, 0.1% Triton; immunoblot; beads-only control
[2] = target: EP400 (human (endogenous in HCT116)) (UniProt Q96L91); assay: as above
[3] = target: TRRAP (human (endogenous in HCT116)) (UniProt Q9Y4A5); assay: co-IP; TRRAP immunoprecipitated from the cytoplasmic extract of TELO2^AID HCT116 cells treated with auxin or NaOH for 48 hr; antibody-bound protein G-Sepharose beads overnight at 4°C; washes in 20 mM Tris-HCl pH 7.5, 150 mM NaCl, 0.1% Triton; immunoblot; beads-only control

Row | Substance | binding [1] | further results
1 | SGF29 (from UniProt Q96ES7 1-293) | binds | 
2 | TAF10 (from UniProt Q12962 1-218) | binds | 
3 | TADA1 (from UniProt Q96BN2 1-335) | binds | 
4 | SUPT7L (from UniProt O94864 1-414) | binds | 
5 | TRRAP (from UniProt Q9Y4A5 1-3859) |  | binding [2]: binds
6 | TADA3 (from UniProt O75528 1-432) | binds | 
7 | TELO2^AID (from UniProt Q9Y4R8 1-837) |  | binding [3]: binds
